Reference: PubChem BioAssay AID540256 (National Center for Advancing Translational Sciences (NCATS), 2011)
Among all 300,000 compounds or so, about 3,700 (1.2%) were called active. Inconclusive results, whose numbers are uncertain, are shown with a selection of clear calls. The call rests on the fitted dose curve; tested in HEK293 cells. Potencies beside an inconclusive call are fits to weak or partial responses and may not hold up.

Experiment: qHTS for Inhibitors of binding or entry into cells for Lassa Virus; further: nearly all actives have a fitted effect of over 50% in size
Conditions: Lassa virus pseudotype entry inhibition, cell reporter; series mostly up to 37.9 µM
Potency means the concentration at half of the fitted maximal effect.

Compound	Potency
CSCC[C@H](NC(=O)c1cccc(S(=O)(=O)N2CCN(C)CC2)c1)c1nc2ccccc2[nH]1	inactive
Cn1cnc(S(=O)(=O)N2CCN(c3cccc(Cl)c3)CC2)c1	inactive
CCOC(=O)c1ccc(NC(=O)CSc2nnc(C3CCCCC3)n2C)cc1	inactive
O=c1[nH]c2ccc(NCc3ccc(-c4cccc(Cl)c4)o3)cc2[nH]1	inactive
Cc1nnc(NC(=O)c2sc3ccccc3c2Cl)s1	active: 11.6 µM
O=C(Nc1nnc(SCC(=O)N2CCCc3ccccc32)s1)c1ccc2ccccc2c1	inconclusive: 20 µM [inhibitor, single point]
N#Cc1c(NC(=O)CSc2nc3ccccc3c(=O)n2Cc2ccco2)sc2c1CCCC2	inactive
Fc1cccc2sc(Nc3nnc(-c4ccco4)o3)nc12	inconclusive: 3.98 µM [inhibitor, full curve, poor fit]
COc1ccc(OC)c(C(Nc2ccccc2)P(=O)(OC(C)C)OC(C)C)c1 (stereo not drawn)	inconclusive: 35.5 µM [inhibitor, single point]
CCCCN(CC)C(=O)/C=C/c1cccc([N+](=O)[O-])c1	inconclusive: 11.2 µM [inhibitor, partial curve, poor fit]
CCN(CC(=O)NC(c1ccccc1)c1ccccc1)Cc1nc2ccccc2c(=O)[nH]1	inconclusive: 35.5 µM [inhibitor, single point]
C=C(C)CSc1cc(C)c(C#N)c2nc3ccccc3n12	inconclusive: 10 µM [inhibitor, partial curve, poor fit]
Cn1c(=O)c(C(=O)NNC(=O)c2ccc(Br)cc2)c(O)c2ccccc21	inconclusive: 17.8 µM [inhibitor, single point]
CCOc1ccc(C(=O)N[C@H](C(=O)Nc2cccc(S(=O)(=O)N3CCCCC3)c2)C(C)C)cc1	inactive
CCC1CSC(=Nc2ccc(C)cc2)N1C(=O)CN1C(=O)NC2(CCCC2)C1=O (stereo not drawn)	active: 10 µM
COc1cccc(N2CCN(c3ccc(S(=O)(=O)N4CCN(C)CC4)cc3[N+](=O)[O-])CC2)c1	inconclusive: 22.4 µM [inhibitor, single point]
COc1ccc(NS(=O)(=O)c2ccc(-n3nnc4ccccc43)c([N+](=O)[O-])c2)cc1	inactive
CN1C(=O)C(=Cc2cn(CC(=O)N3CCCC3)c3ccccc23)C(=O)N(C)C1=O	inactive
Cc1cc(Br)ccc1NC(=O)C(Cc1ccccc1)NS(=O)(=O)c1ccc(Br)s1 (stereo not drawn)	inactive
C=C(C)Cn1c(SCC(=O)c2ccc(OC)cc2)nc2sc3c(c2c1=O)CCCC3	inconclusive: 14.1 µM [activator, partial curve, poor fit]
CNc1ccccc1C(=O)OCC(C)=O	inactive
COc1cccc(OCc2nn[nH]n2)c1	inconclusive: 6.31 µM [activator, partial curve]

Compound	Potency
Cc1cc(SCC(=O)NN)c2cc(Br)ccc2n1	inconclusive: 35.5 µM [inhibitor, partial curve, poor fit]
COCCNC(=O)CSc1cc(-c2ccccc2)c2ccc(OC)cc2n1	inconclusive: 35.5 µM [inhibitor, single point]
Cc1ccc(OCc2nnc(-c3ccc(Cl)cc3)o2)cc1	inconclusive: 11.2 µM [inhibitor, partial curve, poor fit]
COC(=O)c1c(C)oc(C)c1S(=O)(=O)N(C)C1CCCCC1	inactive
Cc1csc(NC(=O)CSC2=NS(=O)(=O)c3ccccc3N2)n1	inactive
O=C(/C=C/c1ccco1)Nc1ccc(Oc2ccc(Cl)cc2)cc1	inconclusive: 3.98 µM [inhibitor, single point]
CCOc1ccccc1NC(=O)CSc1nc2c(c(=O)[nH]1)CCC2	inconclusive: 28.2 µM [inhibitor, single point]
O=C(CCCc1nc(-c2ccc(Cl)cc2)no1)NCC1CCCO1 (stereo not drawn)	inconclusive: 0.316 µM [inhibitor, partial curve, poor fit]
CC(C)Cn1c(N)c(C(=O)COC(=O)c2ccccc2F)c(=O)n(C)c1=O	inactive
COc1ccc(NC(=O)c2ccc3ccccc3c2)cc1NS(=O)(=O)c1ccc(F)cc1	inconclusive: 11.2 µM [inhibitor, partial curve, poor fit]
O=C1C2C3C=CC(C4CC34)C2C(=O)N1/N=C/c1ccc([N+](=O)[O-])o1 (stereo not drawn)	inconclusive: 12.6 µM [inhibitor, partial curve, poor fit]
Cc1cc(/C=C2\NC(=S)NC2=O)c(C)n1-c1cccnc1	inconclusive: 10 µM [inhibitor, partial curve, poor fit]
CCOC(=O)N1CCN(CC(=O)Nc2ccc(F)c(F)c2F)CC1	inconclusive: 8.91 µM [inhibitor, partial curve, poor fit]
COc1ccc(/C=N/NC(=O)c2cc(C)oc2C)cc1OCc1ccccc1	inconclusive: 12.6 µM [inhibitor, partial curve, poor fit]
COc1cccc(-n2cnnn2)c1	inconclusive: 5.17 µM [activator, full curve]
COc1ccccc1NC(=O)C(=O)N(c1cccnc1)C(C(=O)NC(C)(C)C)c1ccccc1 (stereo not drawn)	inconclusive: 35.5 µM [inhibitor, single point]
Cc1nn(CCOc2ccccc2)c(=O)n1-c1c(F)cccc1F	inconclusive: 1.3 µM [activator, partial curve]
O=C(Cc1ccccc1)N(Cc1cccnc1)c1nc2c(F)cccc2s1	inconclusive: 35.5 µM [inhibitor, single point]
Fc1ccc(C2CC(c3cccs3)=NN2c2ccccc2)cc1 (stereo not drawn)	inconclusive: 35.5 µM [inhibitor, partial curve, poor fit]
O=C(NCc1ccc(Cl)cc1)c1ccc(CSCc2cccc(Cl)c2)o1	inconclusive: 35.5 µM [inhibitor, single point]
CC(C)Cn1nc(C(=O)NCc2ccccc2CN2CCCC2)c2ccccc2c1=O	inconclusive: 12.6 µM [inhibitor, single point]

A section taken from the entries so far, for reference:
Compound	Potency
COc1ccc(NC(=O)c2ccc3ccccc3c2)cc1NS(=O)(=O)c1ccc(F)cc1	inconclusive: 11.2 µM [inhibitor, partial curve, poor fit]
O=C1C2C3C=CC(C4CC34)C2C(=O)N1/N=C/c1ccc([N+](=O)[O-])o1 (stereo not drawn)	inconclusive: 12.6 µM [inhibitor, partial curve, poor fit]
Cc1cc(/C=C2\NC(=S)NC2=O)c(C)n1-c1cccnc1	inconclusive: 10 µM [inhibitor, partial curve, poor fit]
